PubChem BioAssay AID1259425 – University of Nebraska Medical Center | 2018

Screen: 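Seek colon cancer weak points whose silencing resembles KSR1 loss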 (primary screen)
System: HCT116 human colon cancer cells
Reagents: siRNA pool against human genes, 50 nM siRNA
Detection: 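After 50 nM siRNA pool, branched-DNA assay measures six marker transcripts per well, minus blank, normalised to the geometric mean of two housekeeping transcripts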
Direction: BNIP3L mRNA: higher = more BNIP3L transcript after knockdown; NDRG1 mRNA: higher = more NDRG1 transcript after knockdown; BNIP3 mRNA: higher = more BNIP3 transcript after knockdown; ALDOC mRNA: higher = more ALDOC transcript after knockdown; ACSL5 mRNA: higher = more ACSL5 transcript after knockdown
The deposit covers about 14,000 reagents; shown is a random part of them. The record does not give: the time to read-out.

gene symbol | BNIP3L mRNA, set 1 | NDRG1 mRNA, set 1 | BNIP3 mRNA, set 1 | ALDOC mRNA, set 1 | ACSL5 mRNA, set 1
BAAT (bile acid-CoA:amino acid N-acyltransferase) | 0.0929 | 0.0741 | 0.381 | 0.0278 | 0.25
LOC83459 (retired record) | 0.642 | 0.547 | 0.449 | 0.213 | 0.643
TNFRSF9 (TNF receptor superfamily member 9) | 0.0826 | 0.234 | 0.322 | 0.0347 | 0.119
CDK5 (cyclin dependent kinase 5) | 0.109 | 0.116 | 0.0999 | 0.0221 | 0.11
KRTAP3-1 (keratin associated protein 3-1) | 0.321 | 0.561 | 0.395 | 0.105 | 0.531
PHB2 (prohibitin 2) | 0.0842 | 0.523 | 0.254 | 0.0227 | 0.157
SDSL (serine dehydratase like) | 0.111 | 0.278 | 0.24 | 0.0262 | 0.0942
CDK15 (cyclin dependent kinase 15) | 0.0894 | 0.32 | 0.465 | 0.00302 | 0.225
MAGEB2 (MAGE family member B2) | 0.083 | 0.12 | 0.326 | 0.0208 | 0.296
NUCLEOLIN (nucleolin multifunctional protein) | 0.162 | 0.62 | 0.406 | 0.0575 | 0.165
PDXP (pyridoxal phosphatase) | 0.149 | 0.828 | 0.224 | 0.0403 | 0.137
LUC7L (LUC7 like) | 0.112 | 0.217 | 0.321 | 0.0328 | 0.366
ADGRL1 (adhesion G protein-coupled receptor L1) | 0.18 | 0.21 | 0.323 | 0.0361 | 0.287
RER1 (retention in endoplasmic reticulum sorting receptor 1) | 0.221 | 0.351 | 0.465 | 0.0258 | 0.255
RAB27A (RAB27A, member RAS oncogene family) | 0.073 | 0.122 | 0.291 | 0.0275 | 0.134
RPL23A (ribosomal protein L23a) | 0.305 | 0.714 | 0.476 | 0.0345 | 0.266
GAPDHS (glyceraldehyde-3-phosphate dehydrogenase, spermatogenic) | 0.0933 | 1.72 | 0.312 | 0.0745 | 0.323
LRFN4 | 0.0613 | 0.251 | 0.171 | 0.0373 | 0.209
TRAF1 (TNF receptor associated factor 1) | 0.142 | 0.638 | 0.384 | 0.0361 | 0.323
ARHGAP42 (Rho GTPase activating protein 42) | 0.0818 | 0.444 | 0.294 | 0.00753 | 0.228
CDC25B (cell division cycle 25B) | 0.111 | 0.175 | 0.345 | 0.0347 | 0.193
TFR2 (transferrin receptor 2) | 0.126 | 0.202 | 0.264 | 0.0456 | 0.102
ABL2 (ABL proto-oncogene 2, non-receptor tyrosine kinase) | 0.122 | 0.127 | 0.235 | 0.0101 | 0.224
GAS8-AS1 (GAS8 antisense RNA 1) | 0.135 | 0.25 | 0.241 | 0.0182 | 0.35
SLC34A1 | 0.111 | 0.359 | 0.281 | 0.0531 | 0.148
MAU2 | 0.101 | 0.448 | 0.352 | 0.0205 | 0.0672
PPM1F (protein phosphatase, Mg2+/Mn2+ dependent 1F) | 0.104 | 0.37 | 0.274 | 0.0284 | 0.179
SERPINI1 (serpin family I member 1) | 0.16 | 0.121 | 0.293 | 0.0609 | 0.128
B3GALNT2 (beta-1,3-N-acetylgalactosaminyltransferase 2) | 0.18 | 0.127 | 0.252 | 0.0458 | 0.0508
H1-4 (H1.4 linker histone, cluster member) | 0.115 | 0.253 | 0.294 | 0.0255 | 0.0992
PLCB4 (phospholipase C beta 4) | 0.123 | 0.0654 | 0.245 | 0.00774 | 0.0523
SEMA6B (semaphorin 6B) | 0.106 | 0.162 | 0.382 | 0.0304 | 0.0594
STMN2 (stathmin 2) | 0.156 | 0.118 | 0.435 | 0.0173 | 0.0825
GC (GC vitamin D binding protein) | 0.144 | 0.149 | 0.184 | 0.0151 | 0.183
WDR19 (WD repeat domain 19) | 0.0933 | 0.161 | 0.286 | 0.0224 | 0.186
GNAT2 (G protein subunit alpha transducin 2) | 0.101 | 0.104 | 0.303 | 0.0188 | 0.202
PPP1R13L (protein phosphatase 1 regulatory subunit 13 like) | 0.173 | 0.128 | 0.172 | 0.0218 | 0.283
CD6 (CD6 molecule) | 0.115 | 0.0955 | 0.228 | 0.0429 | 0.226
MED13 (mediator complex subunit 13) | 0.0998 | 0.156 | 0.257 | 0.0402 | 0.101
GTF3C4 (general transcription factor IIIC subunit 4) | 0.0419 | 0.175 | 0.215 | 0.0125 | 0.149
PI15 (peptidase inhibitor 15) | 0.148 | 0.282 | 0.179 | 0.0167 | 0.355
VAX1 (ventral anterior homeobox 1) | 0.131 | 0.0382 | 0.279 | 0.0302 | 0.0913
PHGDH (phosphoglycerate dehydrogenase) | 0.0669 | 0.0822 | 0.17 | 0.0256 | 0.0767
SOSTDC1 (sclerostin domain containing 1) | 0.127 | 0.197 | 0.585 | 0.0328 | 0.177
SYNE2 (spectrin repeat containing nuclear envelope protein 2) | 0.11 | 0.225 | 0.146 | 0.0249 | 0.16
DNAJC15 (DnaJ heat shock protein family (Hsp40) member C15) | 0.135 | 0.485 | 0.519 | 0.0424 | 0.183
AKAP5 (A-kinase anchoring protein 5) | 0.139 | 0.113 | 0.383 | 0.00419 | 0.341
BPY2 (basic charge Y-linked 2) | 0.0944 | 0.131 | 0.515 | 0.033 | 0.163
ZFPM2 (zinc finger protein, FOG family member 2) | 0.162 | 0.0937 | 0.344 | 0.0201 | 0.22
RESF1 (retroelement silencing factor 1) | 0.0404 | 0.136 | 0.275 | 0.0235 | 0.115
PTPRF (protein tyrosine phosphatase receptor type F) | 0.0489 | 0.123 | 0.202 | 0.0131 | 0.137
RAB33B (RAB33B, member RAS oncogene family) | 0.104 | 0.0516 | 0.239 | 0.0294 | 0.153
ICAM1 (intercellular adhesion molecule 1) | 0.222 | 0.552 | 0.218 | 0.052 | 0.258
FANCM (FA complementation group M) | 0.122 | 0.161 | 0.399 | 0.0329 | 0.11
CLDN9 (claudin 9) | 0.0721 | 0.181 | 0.293 | 0.0387 | 0.132
GPR135 (G protein-coupled receptor 135) | 0.0708 | 0.056 | 0.365 | 0.00938 | 0.0657
ITPKB (inositol-trisphosphate 3-kinase B) | 0.0909 | 0.116 | 0.374 | 0.0057 | 0.147
ERLEC1 (endoplasmic reticulum lectin 1) | 0.234 | 0.226 | 0.42 | 0.025 | 0.171
CSNK1E (casein kinase 1 epsilon) | 0.0582 | 0.58 | 0.352 | 0.00722 | 0.475
PMM1 (phosphomannomutase 1) | 0.335 | 1.39 | 0.515 | 0.0385 | 0.361
COL5A3 (collagen type V alpha 3 chain) | 0.0684 | 0.462 | 0.34 | 0.0335 | 0.182
COPS4 (COP9 signalosome subunit 4) | 0.146 | 0.273 | 0.29 | 0.0261 | 0.164
MZB1 (marginal zone B and B1 cell specific protein) | 0.115 | 0.149 | 0.173 | 0.034 | 0.34
